Experimental data: PubChem BioAssay AID2685 (National Center for Advancing Translational Sciences (NCATS), 2010)
Among all 320,000 compounds or so, about 2,100 (0.66%) were called active. This list was built around the results that the source calls inconclusive (neither active nor inactive); the mix of calls is not that of the screen. Calls follow the shape of the dose curve; as a rule, active = well fitted inhibition curve with a large enough effect in the signal ratio, with a control signal flat (not every such curve was filed as active); inconclusive = small, poorly fitted or top-dose-only effect, or effect the other way, or a change in a side signal; inactive = flat fitted curve, though single readings scatter; the % refers to the signal ratio. Potencies of inconclusive entries are doubtful fits and often do not repeat.

Experiment: qHTS Assay for Lipid Storage Modulators in Drosophila S3 Cells
Settings: BODIPY lipid droplet fluorescence, 18-24 h, cells fed with added oleic acid; lipid storage change, negative = inhibition: at 46.1 µM (top of the series) unless noted
Description: NIH Molecular Libraries Probe Production Centers Network [MLPCN] NIH Chemical Genomics Center [NCGC] MLPCN Grant: 1 R03 MH085686-01 Assay Submitter (PI): Beller, Mathias; Max-Planck-Institut fur Biophysikalische Chemie NCGC Assay Overview: Storing lipids as a reservoir for energy or the anabolism of elementary metabolites is a common feature of probably all cells and is conserved from bacteria to humans. The universal cellular lipid storage organelle is the so-called lipid storage droplet (LD). Although ubiquitous, LDs share a simple structure composed of a hydrophobic core that harbors the storage lipids, which is shielded by a droplet-specific phospholipid monolayer to which proteins are attached. The current model of LD biogenesis involves an incorporation of the lipid core into the membrane leaflets of the endoplasmic reticulum (ER) followed by a subsequent budding-like maturation of a LD, which ultimately pinches off. Once released, LD volume can increase by localized lipogenesis or fusion of existing droplet. Storage lipids are re-mobilized enzymatically by lipase activity. Lipase regulation in the adipocyte is heavily studied and involves multiple components including catecholamine signaling, the LD-associated proteins Perilipin and comparative gene identification (CGI-58) and at least two lipases named hormone sensitive lipase (HSL) and adipocyte triglyceride lipase (ATGL). LD regulation outside of the adipocyte is poorly understood and only few components are known. However, there is an urgent need to learn more about ectopic fat depots as mislocalized storage of lipids, for example in the liver or muscle, is an eminent health problem associated with insulin resistance or the metabolic syndrome. We developed a laser-scanning cytometer assay to enable 1,536-well screening and combined the results of the small molecules screen with an RNAi database based on lipid storage.
Triacsin C (Sigma-Aldrich T-4540), an inhibitor of long-chain fatty acyl CoA synthetase that blocks synthesis of triglycerides, was used as a positive control for lipid under-storage. A total of 23 nL of compound solution of different concentrations were transferred to the assay plates using a Kalypsys pin tool equipped with a 1,536-pin array containing 10-nL slotted pins (FP1S10, 0.457-mm diameter, 50.8 mm long; V&P Scientific). One microliter of oleic acid (400 uM) was added, and the plate was lidded with stainless steel rubber gasket lined lids containing pinholes. […] Fluorescence was detected by excitation of the fluorophores with a 488-nm laser on an Acumen Explorer (TTP Lab Tech). The total intensity in channel 2 (500-530 nm) reflected lipid droplet accumulation. Cells were detected using channel 3 (575-640 nm) with 5-um width and 100-um depth filters. The ratio of the number of objects in PMT channel 2 over the number of objects in PMT channel 3 was also calculated. Percent activity was computed relative to an internal control (100% inhibited lipid droplet deposition due to the presence of 20 uM Triacsin C), which was added to 32 wells/plate.
% is scaled to controls: 0 for no effect and ±100 for the full control effect; potency is read from the fitted curve at half-maximal effect.

Structure (SMILES) | Potency | lipid storage change, negative = inhibition
CN(C)C(=O)C(OC(=O)c1ccc2c(c1)CCCC2)c1ccccc1 (stereo not drawn) | active: 0.58 µM | 
CC(NC(=O)C(=O)NCCCn1ccnc1)c1ccccc1 (stereo not drawn) |  | inconclusive: 2.72%
Cc1cccc(CNc2ncnc3ccc(-c4ccc5c(c4)OCO5)cc23)c1 |  | inconclusive: -24.9%
COC(=O)c1c(NC(=O)CN2CCOCC2)sc2c1CCC(C)C2 (stereo not drawn) |  | inconclusive: 15.7%
CC(C)CCOc1ccc(C(=O)N2CCCC2C(=O)O)cc1 (stereo not drawn) |  | inconclusive: -2.1%
CC1Cc2nc(SCC(=O)Nc3nc4ccccc4s3)n(C)c(=O)c2S1 (stereo not drawn) |  | inconclusive: 29.1%
C/C(=N/NS(=O)(=O)c1ccc(F)cc1)c1ccc(NC(=O)c2ccc(C)o2)cc1 |  | inconclusive: 92%
O=C(CC1NC(=O)NC1=O)NC1(C(=O)NC2CCCCC2)CCCCC1 (stereo not drawn) | inconclusive: 6.51 µM [falling, single point] | 
COc1cc(/C=N/NC(=O)C[n+]2ccccc2)cc(OC)c1OC |  | inconclusive: -0.109%
CCOc1ccc(N2C(=O)C3C(c4ccc(O)cc4)NC(CCSC)(C(=O)OC)C3C2=O)cc1 (stereo not drawn) |  | inconclusive: -15.8%
CCCOP(=O)(OCCC)c1c([N+](=O)[O-])cc(C(F)(F)F)cc1[N+](=O)[O-] | inconclusive: 6.51 µM [cytotoxic, partial curve] | 
O=C1COc2ccccc2N1Cc1c(F)cccc1Cl |  | inconclusive: 15.6%
Cc1ccc(N(C(=O)c2sc(C)nc2C)C(C(=O)NC(C)(C)C)c2ccncc2)cc1 (stereo not drawn) |  | inconclusive: 17.2%
COc1cc(/C=C/C(=O)OCC(=O)NC2CC2)cc(S(=O)(=O)N2CCc3ccccc32)c1OC |  | inconclusive: 13.8% [at 9.22 µM]
CC(C)(C)c1ccc(C(=O)NCC(=O)OCC(=O)Nc2ccc3c(c2)OCCO3)cc1 | inconclusive: 4.61 µM [falling, partial curve, poor fit] | 
S=c1[nH]nc(-c2cnccn2)n1-c1ccccc1 |  | inconclusive: 23.9%
CCN(C(=O)COC(=O)c1oc2ccc(OC)cc2c1C)C1CCCCC1 | inconclusive: 29.1 µM [cytotoxic, single point] | 
C=CCn1c(SCC(=O)N2CCN(c3ccc(F)cc3)CC2)nnc1-c1cccs1 | inconclusive: 3.26 µM [activator, full curve] | 
O=C(Nc1sc2c(c1C(=O)NCCO)CCCC2)c1ccco1 | inconclusive: 1.03 µM [falling, full curve] | 

Taken from above.
Value of Cc1ccc(N(C(=O)c2sc(C)nc2C)C(C(=O)NC(C)(C)C)c2ccncc2)cc1 (stereo not drawn) under lipid storage change, negative = inhibition: inconclusive: 17.2%
Value of C=CCn1c(SCC(=O)N2CCN(c3ccc(F)cc3)CC2)nnc1-c1cccs1 under Potency: inconclusive: 3.26 µM [activator, full curve]
Value of CCOc1ccc(N2C(=O)C3C(c4ccc(O)cc4)NC(CCSC)(C(=O)OC)C3C2=O)cc1 (stereo not drawn) under lipid storage change, negative = inhibition: inconclusive: -15.8%

Next structures:

Structure (SMILES) | Potency | lipid storage change, negative = inhibition
Brc1ccc(Cn2c(-c3ccc(Br)o3)nc3ccccc32)o1 |  | inconclusive: -0.523%
COc1cccc(CN2CCCC(N3CCc4ccccc4C3)C2)c1O (stereo not drawn) | inconclusive: 6.51 µM [activator, full curve] | 
Cc1ccc(C(=O)CN2C(=O)NC3(CCCCCC3)C2=O)c(C)c1 |  | inconclusive: 32.7%
O=C(N/N=C/C=C\c1ccccc1[N+](=O)[O-])c1ccncc1 |  | inconclusive: 11.4%
COc1ccc(OC)c(CNC(=O)C2CCN(S(=O)(=O)N3CCCCC3)CC2)c1 |  | inconclusive: -37.1%
CC1(C)Cc2ccccc2-c2nnc(SCc3ccc(C#N)cc3)n21 | inconclusive: 0.0058 µM [activator, full curve, poor fit] | 
CCOC(=O)N1CCC(NC(=O)c2cccc3c2C(=O)N(CCOC)C3)CC1 | inconclusive: 1.84 µM [falling, partial curve] | 
Cn1cc(Br)c(C(=O)N2CCCCCC2)n1 | inconclusive: 2.91 µM [falling, partial curve, poor fit] | 
Cc1ccc(S(=O)(=O)Nc2cc(C)cn(Cc3ccc(F)cc3)c2=O)cc1 |  | inconclusive: 2.81%
COC(=O)c1ccc(CN(C(=O)N2CCN(C)CC2)S(=O)(=O)c2ccc(C)cc2)cc1 |  | inconclusive: 40.9% [activator] [at 0.0737 µM]
C/C(=N\NS(=O)(=O)c1cccc([N+](=O)[O-])c1)c1cc2ccccc2o1 | inconclusive: 23.1 µM [activator, single point] | 
Fc1ccc(/C=N/NC(=S)Nc2cccnc2)cc1F |  | inconclusive: -8.52%
COc1cccc(/C(O)=C/C(=O)C(=O)Nc2ccc(S(=O)(=O)NC(C)=O)cc2)c1 |  | inconclusive: 33.6%
COc1ccc(C(=O)NCC2CCCN2S(=O)(=O)c2cccs2)cc1OC (stereo not drawn) |  | inconclusive
CC(NC(N)=O)C(=O)NCC(=O)OCc1ccccc1 (stereo not drawn) |  | inconclusive: -3.31%
COC(=O)c1sc(N)c(C(=O)OC)c1COC(=O)CNS(=O)(=O)c1ccc(C)c(C)c1 |  | inconclusive: 19.3%
C=CCn1c(SCC(=O)Nc2nncs2)nnc1-c1ccco1 |  | inconclusive: 72.9%
COc1ccc(C2C(C#N)=C(N)Oc3n[nH]c(C)c32)cc1Cn1nnc2ccccc21 (stereo not drawn) | inconclusive: 0.651 µM [activator, full curve] | 
CCc1nc2ccccc2c(C(=O)OCC(=O)Nc2ccc(S(=O)(=O)N3CCOCC3)cc2)c1C |  | inconclusive: -5.78%
